Experiment [1] addresses T1, TAP-tagged Fep1 (S. pombe) (UniProt Q10134).
T1 sequence: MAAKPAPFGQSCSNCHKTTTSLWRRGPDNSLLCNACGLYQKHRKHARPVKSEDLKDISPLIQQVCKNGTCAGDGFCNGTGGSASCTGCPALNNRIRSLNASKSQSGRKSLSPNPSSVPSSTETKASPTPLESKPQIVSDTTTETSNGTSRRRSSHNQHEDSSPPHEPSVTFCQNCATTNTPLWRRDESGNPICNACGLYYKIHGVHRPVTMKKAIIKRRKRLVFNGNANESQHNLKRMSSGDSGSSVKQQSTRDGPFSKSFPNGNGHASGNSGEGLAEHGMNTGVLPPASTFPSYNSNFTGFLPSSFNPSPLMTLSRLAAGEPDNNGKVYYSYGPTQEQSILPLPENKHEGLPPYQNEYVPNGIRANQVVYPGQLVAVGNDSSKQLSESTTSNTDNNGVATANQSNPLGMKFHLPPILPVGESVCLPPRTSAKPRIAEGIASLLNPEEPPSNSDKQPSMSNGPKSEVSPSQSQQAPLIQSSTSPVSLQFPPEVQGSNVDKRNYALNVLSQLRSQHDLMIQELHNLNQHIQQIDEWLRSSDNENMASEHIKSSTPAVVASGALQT
In words: co-IP; TAP pull-down: whole-cell extracts (~2.7 mg protein) of S. pombe cells co-expressing the tagged proteins, treated with Dip (250 µM) or FeCl3 (100 µM) for 30 min; IgG-Sepharose 6 Fast-Flow beads hold TAP or TAP-Fep1, 18 h at 4°C; lysis buffer 10 mM Tris-HCl pH 7.9, 0.1% Triton X-100, 0.5 mM EDTA, 20% glycerol, 100 mM NaCl; immunoblot with anti-Myc, anti-GFP and anti-α-tubulin. Background: In western blotting, separated proteins are transferred to a membrane and probed.

The target in experiment [2] is T2, VN-tagged Fep1 (S. pombe) (UniProt Q10134).
T2 sequence: T1 sequence
In words: split reporter; BiFC with Venus fragments VN and VC in living S. pombe cells, iron-starved and iron-replete; fluorescence microscopy with Hoechst stain.

Results are given in words; binding and its absence hold for the method and conditions named. Binding seen in cells or lysates may run through a third protein. Binding calls can cover weak binding; strength is not graded here. Tags and fused reporters may be left off the sequences shown.

As for Myc13-tagged Fra2 (S. pombe), in experiment [1], the binding entry is reported as “binds”.

Consider VC-tagged Fra2 (S. pombe), for which the binding entry in experiment [2] was “binds”.

In the case of “α-tubulin (S. pombe (endogenous in S. pombe cells))”, the binding result in experiment [1] was “no binding”.

Values taken from publication PMC4045890.
